# In all, about 340,000 compounds went through this assay and about 170 (0.05%) were called active. The shares of active, inactive and inconclusive entries below differ from those in the screen. Calls follow the shape of the dose curve; as a rule, active = well fitted inhibition curve with a large enough effect in the signal ratio, with a control signal flat (not every such curve was filed as active); inconclusive = small, poorly fitted or top-dose-only effect, or effect the other way, or a change in a side signal; inactive = flat fitted curve, though single readings scatter; the % refers to the signal ratio. Potencies beside an inconclusive call are fits to weak or partial responses and may not hold up.
# Experiment: qHTS Assay to Find Inhibitors of Chronic Active B-Cell Receptor Signaling;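 as to activity change, negative = inhibition: plate controls were basal doxycycline-induced cells for no effect and cells given 10 µM MG132 for full effect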
# Settings: ABC-DLBCL IkBa-CBG/CBR reporter, luminescence ratio (green luciferase fused to IkBa over red control in TMD8 lymphoma cells), 4 h; activity change, negative = inhibition: at 46.1 µM (top of the series)
# How it was run: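 Cell line TMD8 (human ABC DLBCL), stably expressing tet-inducible CBG68-IkBa fusion and CBR; IMDM/0.5% FBS; cpd up to 46 uM; dox induction, 4 h, 37C/5% CO2; dual luminescence; green/red ratio; MG132 control.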
# Potency is read from the fitted curve at half-maximal effect.
Structure (SMILES),"activity change, negative = inhibition",Potency
CNC(=O)c1c(NC(=O)c2ccco2)sc2c1CCCC2,inconclusive: 7.2%,–
COc1cc(OC)c(S(=O)(=O)Nc2ccc(C(=O)O)cc2)cc1S(=O)(=O)Nc1ccc(C(=O)O)cc1,inactive: -4.32%,–
Cc1ccccc1-n1nc(C)c(N=O)c1N,inconclusive: 1.78%,–
CCOC(=O)c1ccc(N/C=C2/CCCC(C)C2=O)cc1 (stereo not given),–,"inconclusive: 4.11 µM [falling, partial curve]"
CC(=C\c1ccccc1)/C=C1/SC(=S)N(CCCC(=O)O)C1=O,–,"inconclusive: 0.708 µM [falling, full curve, poor fit]"
CC(C)(C)c1ccc(OCC(=O)Nc2ccc(C(=O)Nc3ccccc3C(=O)O)cc2)cc1,inconclusive: 0.421%,–
CC(=O)/C=C(\C)Nc1ccccc1O,–,"inconclusive: 15.8 µM [falling, single point]"
C/C(=N/NC(=O)c1ccc2c(c1)OCO2)c1ccc(NC(=O)C(F)(F)F)cc1,–,"inconclusive: 23.1 µM [falling, partial curve]"
CC(C)CC1Nc2ncnc(N3CCN(c4ccccn4)CC3)c2N(Cc2ccc(Cl)cc2)C1=O (stereo not given),inactive: -0.674%,–
CC(OC(=O)CNC(=O)C12CC3CC(CC(C3)C1)C2)C(=O)Nc1ccc(N2CCOCC2)cc1 (stereo not given),inconclusive: -9.81%,–
Cc1cccc(Nc2c3c(nc4ccccc24)CCC3)c1,inactive: 1%,–
COc1cc(C(=O)NCC2CCCO2)ccc1OCc1ccc(Cl)cc1Cl (stereo not given),–,"inconclusive: 29.1 µM [falling, single point]"
CCCCn1c(CNC(=O)c2cccs2)nc2ccccc21,inactive: -9.65%,–
COc1ccc2c(c1)c(C(C)=O)c(C)n2CCc1ccc(OC)c(OC)c1,inconclusive: -18.4%,–
O=C(CCC1CCCN(C(=O)CC2=CCCCC2)C1)N1CCN(c2ccccn2)CC1 (stereo not given),inconclusive: 8.43%,–
O=C(c1ccc(S(=O)(=O)N2CCOCC2)cc1)N1CCN(c2ccc(F)cc2)CC1,inactive: -0.399%,–
N#C/C(C(N)=O)=C1/SC=C(c2ccccc2)N1c1ccccc1,inactive: -23.7%,–
CCOC(=O)c1ccc(Nc2nc(N)c3cc(OC)c(OC)cc3n2)cc1,inconclusive: -0.168%,–
O=C(CSc1ccc(F)cc1)Nc1nnc(-c2ccco2)o1,–,"inconclusive: 29.1 µM [falling, single point]"
O=C(Cn1cccc1)N1CCN(C(c2ccccc2)c2ccccc2)CC1,inconclusive: 0.664%,–
Cc1ccsc1/C=N/NC(=O)c1nnn(-c2nonc2N)c1-c1ccc2c(c1)OCO2,inconclusive: -20.3%,–
Oc1ccc(O)c2c1C1c3ccccc3C2c2ccccc21,inconclusive: -13.5%,–

# Record cards, from the list above. Order of values: activity change, negative = inhibition | Potency
# Cc1ccsc1/C=N/NC(=O)c1nnn(-c2nonc2N)c1-c1ccc2c(c1)OCO2 in the list: inconclusive: -20.3% | –
# O=C(CSc1ccc(F)cc1)Nc1nnc(-c2ccco2)o1 in the list: – | inconclusive: 29.1 µM [falling, single point]
# O=C(Cn1cccc1)N1CCN(C(c2ccccc2)c2ccccc2)CC1 in the list: inconclusive: 0.664% | –

# Carrying on:

Structure (SMILES),"activity change, negative = inhibition",Potency
COc1cccc(NC(=O)C2CC2)c1,inactive: 0.141%,–
O=C(O)/C=C\c1cc2c(cc1[N+](=O)[O-])OCO2,inconclusive: -98.6%,–
COc1ccc(Nc2cc(C(=O)NCCCN(C)c3ccccc3)c3ccccc3n2)c(OC)c1,inconclusive: 23.1%,–
N#C/C(=C/c1ccc(N2CCCCC2)o1)C(=O)Nc1ccc(Cl)cc1,inconclusive: -15.4%,–
C[C@H](CO)N1C[C@H](C)[C@@H](CN(C)S(=O)(=O)c2cccs2)Oc2c(NC(=O)NC3CCCCC3)cccc2C1=O,inactive: 0.312%,–
Cc1cccc(N2CCN(C(=O)N3CCOCC3)CC2)c1C,inactive: -4.86%,–
CC1CCCC(NC(=O)Cn2cc(C(F)(F)F)cc(Cl)c2=O)C1C (stereo not given),inconclusive: 1.16%,–
Cc1cccc(NC(=O)c2cc(S(=O)(=O)N3CCCCC3)ccc2Cl)n1,inconclusive: 6.4%,–
COc1cc(OC)c(CN2CCc3c([nH]c4ccccc34)C2)cc1Br,inactive: -18.1%,–
O=C(CNc1ccc2c(c1)OCO2)N/N=C\c1cn(Cc2ccc(F)cc2)c2ccccc12,inconclusive: 7.61%,–
COc1ccc([N+](=O)[O-])cc1NCc1ccco1,inconclusive: 3.36%,–
Cc1ccc(CS(=O)(=O)c2ccc(C(=O)N3CCCCC3)cc2[N+](=O)[O-])cc1,inconclusive: 2.87%,–
O=C(c1ccc(-c2ccc([N+](=O)[O-])cc2)o1)N1CCCCC1,inconclusive: 5.76%,–
CCOCCCNC(=O)c1cc(Sc2nnc(C)s2)nc2ccccc12,inconclusive: 2.97%,–
Cn1cc(SCC(=O)NCCc2ccccc2)c2ccccc21,–,"inconclusive: 0.251 µM [rising, full curve, poor fit]"
CC1(C)Cc2c(c(-c3ccccc3)[nH]c(=O)c2C#N)CS1,inconclusive: 8.43%,–
Cc1ccc(/C=N/NC(=O)c2nnn(-c3nonc3N)c2-c2ccccc2)o1,inactive: 6.38%,–
CCc1c(C#N)c(SCCC(=O)Nc2ccc(F)cc2)nc2c1C(=O)CC(C)(C)C2,inconclusive: 20.5%,–
COc1ccc(CNC(=O)C(c2ccco2)N(C(=O)CNS(=O)(=O)c2ccccc2)c2ccccc2C)cc1 (stereo not given),inconclusive: -12.8%,–
Oc1ccc(CN2CCN(Cc3ccccc3)CC2)c2cccnc12,inactive: 0.0055%,–
COc1cc(C2NC(C(=O)O)CS2)ccc1OCc1ccccc1C#N (stereo not given),inconclusive: -15.6%,–
COc1ccc(C(=O)Nc2ccc(/C(C)=N/NC(=O)c3ccccc3O)cc2)cc1OC,–,"inconclusive: 5.8 µM [cytotoxic, single point]"

Structure (SMILES),"activity change, negative = inhibition",Potency
CC1CCN(Cc2nc(-c3ccc(Cl)cc3)no2)CC1,–,"inconclusive: 6.31 µM [rising, partial curve, poor fit]"
O=c1[nH]n(-c2ccc([N+](=O)[O-])cc2)c(=O)c2ccccc12,inconclusive: -8.59%,–
CC1CCC2(CC1)NC(=O)N(CC(=O)Nc1ccc(F)cc1)C2=O (stereo not given),–,"inconclusive: 20.6 µM [falling, single point]"
CCCCCN1C(=O)Cn2c(nc3ccccc3c2=O)C1C (stereo not given),inactive: -0.688%,–
c1ccc(Nc2ccccn2)nc1,inconclusive: 2.2%,–
Cc1ccc(/C=C2\Oc3cc(OCC(=O)NN)ccc3C2=O)o1,inconclusive: -0.938%,–
C=C1N(C)c2cc([N+](=O)[O-])c(N)cc2C1(C)C,inactive: 0.711%,–
Cc1noc(NS(=O)(=O)c2ccc(NC(=O)COc3ccc(Cl)cc3Cl)cc2)c1C,inactive: -0.923%,–
Brc1ccccc1-c1nc2c3ccccc3ncn2n1,inactive: -8.92%,–
CN(CCOc1ccccc1)CC(O)COc1ccccc1 (stereo not given),inactive: -0.938%,–
CCOC(=O)c1ccc(Nc2ncnc3c2cnn3C)cc1,inconclusive: -10.9%,–
Cn1c(-c2cccc(Br)c2)cnc1NCc1cccnc1,inactive: 6.82%,–
COC(=O)Cc1[nH]nc2c1C(C1C=CCCC1)C(C#N)=C(N)O2 (stereo not given),–,"inconclusive: 14.6 µM [falling, partial curve]"
COc1cccc(-c2cc(C(=O)Nc3ccccc3SC)no2)c1,–,"inconclusive: 2.82 µM [falling, partial curve, poor fit]"
COc1ccc(C)c2sc(=NC(=O)c3ccc(C(C)=O)cc3)n(C)c12,inconclusive: -3.53%,–
COc1ccc(Nc2nc(N)c([N+](=O)[O-])c(NC3CCCCC3)n2)cc1,inactive: 0.83%,–
Clc1nnc(N/N=C/c2ccccc2)c2ccccc12,–,"inconclusive: 23.1 µM [falling, partial curve]"
O=S(=O)(c1ccccc1)N1CCC(Oc2ccc(-n3cnnn3)cc2)CC1,inconclusive: -38.6%,–
Cn1cc(CNC(=O)COc2ccc(Cl)cc2Cl)cn1,inconclusive: 4.37%,–
COc1ccccc1C(=O)Nc1ccccc1C(=O)N1CCCC1,inconclusive: 8.57%,–
Clc1ccc(COc2ccccn2)cc1Cl,inactive: -21.6%,–
O=C1c2ccccc2C(=O)N1CCCP(=O)(O)CCc1ccccc1,inconclusive: 16.6%,–

Structure (SMILES),"activity change, negative = inhibition",Potency
O=C(NCC1CCCO1)c1ccc(S(=O)(=O)Nc2ccc(F)cc2)cc1 (stereo not given),inconclusive: 8.55%,–
CCn1c(SCc2ccc(OC)c(F)c2)nc2ccccc2c1=O,inconclusive: 16.2%,–
Cn1cc(Cl)c(C(=O)Nc2nc3ccc([N+](=O)[O-])cc3s2)n1,–,"inconclusive: 5.62 µM [falling, single point]"
Cc1ccnc(NC(=O)CCC(=O)N(CC(=O)NCc2ccccc2)Cc2ccco2)c1,inconclusive: -9.48%,–
Cc1ccc(/C=C2\SC(=S)N(CCCC(=O)Nc3ccccc3C(=O)O)C2=O)cc1,inconclusive: 1.85%,–
CCCCCCCN1C(Nc2ccccc2)=NC[C@@H]1Cc1ccccc1,–,"inconclusive: 15.8 µM [falling, single point]"
CCCc1ccc(-c2ccc(C(=O)O)cc2)nc1,–,"inconclusive: 1.46 µM [falling, partial curve]"
COc1ccc(C)c2sc(N(CCN(C)C)C(=O)/C=C/c3cccs3)nc12,inconclusive: -9.87%,–
O=C(/C=C/c1cccc([N+](=O)[O-])c1)Nn1c(-c2ccccc2F)nc2ccccc2c1=O,inconclusive: 0.077%,–
Oc1ccc(/C=N/n2c(-c3ccccc3)n[nH]c2=S)cc1Br,inconclusive: -0.0692%,–
O=C(Nc1ccc(Oc2ccccc2)cc1)c1cnc2n(c1=O)CCS2,–,"inconclusive: 0.291 µM [rising, full curve, poor fit]"
COC(=O)C1=C(C)N(CC2CC2)C(=NCc2cccc(Cl)c2)N[C@H]1c1ccccc1,inconclusive: -9.86%,–
CC(=O)c1ccccc1OCCOCCOCCOc1ccccc1C(C)=O,inactive: 13%,–
O=C1Nc2ccccc2N(O)N1c1ccc(Cl)cc1,inactive: -0.55%,–
O=C(O)c1cccc(Nc2ncnc3ccccc23)c1,–,"inconclusive: 2.59 µM [falling, full curve]"
CC1(C)S/C(=N/N=C/c2ccco2)NC1=O,inconclusive: 10.8%,–
Cc1ccc(S(=O)(=O)Nc2nccs2)cc1[N+](=O)[O-],inconclusive: -0.214%,–
O=C(CNC(=O)c1ccco1)NCc1ccc2c(c1)OCO2,inactive: 4.96%,–
CCC(=O)Nc1ccc(NC(=O)c2c(C)nc3ccccn23)cc1,inconclusive: 1.16%,–

# Ordered by length of the SMILES (smallest number first): three of the compounds above
Structure (SMILES),"activity change, negative = inhibition",Potency
O=C(CNC(=O)c1ccco1)NCc1ccc2c(c1)OCO2,inactive: 4.96%,–
CCCCCCCN1C(Nc2ccccc2)=NC[C@@H]1Cc1ccccc1,–,"inconclusive: 15.8 µM [falling, single point]"
O=C(NCC1CCCO1)c1ccc(S(=O)(=O)Nc2ccc(F)cc2)cc1 (stereo not given),inconclusive: 8.55%,–

# Source: PubChem BioAssay AID493014 (National Center for Advancing Translational Sciences (NCATS), 2011)
